The source of these data is US20070042947A1 (Takeda Pharmaceutical Company Limited, priority 2003, published 2007).

The nature of series [1]: general procedure: Fmoc solid-phase peptide synthesis; Wang resin; HBTU. Conditions: whole synthesis, scale 0.25 mmol.
Series [2] in a line: general procedure: Fmoc solid-phase peptide synthesis; Wang (p-benzyloxybenzyl alcohol) resin; HBTU. As to conditions: whole synthesis, scale of the general procedure 0.25 mmol.

For the substance [Phe^2] Human GPR8 Ligand (1-20), the isolated mass in series [1] is 35 mg. In addition, the “final HPLC purity” value in series [2] was found to be 98.8%.
